Assay results published in US20180073027.

Chains of the proteins cited; added tags and fusions are not shown. Residues count along the entry.
UniProt P10721, 26-976: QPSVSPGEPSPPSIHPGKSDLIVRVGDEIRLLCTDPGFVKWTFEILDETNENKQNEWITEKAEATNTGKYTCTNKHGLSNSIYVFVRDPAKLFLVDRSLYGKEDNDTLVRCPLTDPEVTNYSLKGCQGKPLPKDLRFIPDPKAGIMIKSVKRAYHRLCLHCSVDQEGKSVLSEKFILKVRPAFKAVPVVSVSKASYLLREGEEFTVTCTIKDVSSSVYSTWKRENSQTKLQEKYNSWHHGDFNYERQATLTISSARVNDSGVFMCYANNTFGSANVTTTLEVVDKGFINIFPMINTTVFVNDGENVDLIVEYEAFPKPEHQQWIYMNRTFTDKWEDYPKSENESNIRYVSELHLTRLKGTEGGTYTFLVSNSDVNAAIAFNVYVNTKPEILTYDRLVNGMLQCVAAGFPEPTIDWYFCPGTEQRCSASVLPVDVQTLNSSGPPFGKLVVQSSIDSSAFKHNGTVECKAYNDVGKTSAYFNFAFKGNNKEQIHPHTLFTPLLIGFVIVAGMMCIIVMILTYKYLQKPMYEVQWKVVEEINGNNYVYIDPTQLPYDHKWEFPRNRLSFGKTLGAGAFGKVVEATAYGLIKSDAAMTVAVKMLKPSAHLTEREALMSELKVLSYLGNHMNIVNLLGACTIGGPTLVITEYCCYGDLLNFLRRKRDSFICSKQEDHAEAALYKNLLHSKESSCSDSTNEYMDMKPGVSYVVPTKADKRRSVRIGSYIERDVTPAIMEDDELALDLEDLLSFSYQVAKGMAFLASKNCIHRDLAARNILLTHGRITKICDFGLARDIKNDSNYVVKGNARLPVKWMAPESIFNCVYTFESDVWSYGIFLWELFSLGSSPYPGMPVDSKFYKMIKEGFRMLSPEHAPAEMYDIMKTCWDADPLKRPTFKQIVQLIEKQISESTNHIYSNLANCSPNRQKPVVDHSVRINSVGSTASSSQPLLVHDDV

Assays:
[1] = target: CD117 (KIT, c-Kit) (UniProt P10721); assay: flow cytometry; details: HEL cells; only range for truncated forms given in text; protein on the cell surface; label: Cy3; single-stranded DNA; variant of CD117 aptamer #1F (full length)
[2] = target: CD117 (KIT, c-Kit) (UniProt P10721); assay: pull-down; details: 100 nM aptamer, streptavidin beads, anti-CD117 western blot; CD117 (P10721) confirmed by mass spectrometry; protein in an extract; protein details: endogenous, HEL whole-cell lysate; label: biotin; single-stranded DNA; variant of CD117 aptamer #1F (full length)

| Sequence | binding result [1] | binding result [2] |
| --- | --- | --- |
| GAGGCATACCAGCTTATTCAAGGGGCCGGGGCAAGGGGGGGGTACCGTGGTAGGAC [#1-3' Del] | binds more weakly | – |
| GGGGCCGGGGCAAGGGGGGGGTACCGTGGTAGGACATAGTAAGTGCAATCTGCGAA [#1-5' Del] | binds more weakly | – |
| GAGGCATACCAGCTTATTCAAGGGGCCGGGGCAAGGGGGGGGTACCGTGGTAGGACATAGTAAGTGCAATCTGCGAA [CD117 aptamer #1F, biotin-labeled] | – | binds |
| GGGGCCGGGGCAAGGGGGGGGTACCGTGGTAGGAC [#1-35 Core] | binds more weakly | – |

For at least one entry, the source does not settle the construct or the ends of the probe. Where cells or extracts were used, other partners may take part. For some of these results: The comparison behind a weaker result is the experiment's own reference, which may not be listed here.
